Among the data in article PMC4847768 are binding values, retold here.

No constants are given. Whether binding was seen depends on the method and setting. Binding seen in cells or lysates may run through a third protein. Some binding calls cover weakened binding; strength is not graded here. Where a sequence is shown, tags or fusion partners need not be part of it.

Assay [1] deals with T1, SC65-Flag (Synaptonemal Complex 65, P3H4) (mouse) (UniProt Q8K2B0).
T1 sequence: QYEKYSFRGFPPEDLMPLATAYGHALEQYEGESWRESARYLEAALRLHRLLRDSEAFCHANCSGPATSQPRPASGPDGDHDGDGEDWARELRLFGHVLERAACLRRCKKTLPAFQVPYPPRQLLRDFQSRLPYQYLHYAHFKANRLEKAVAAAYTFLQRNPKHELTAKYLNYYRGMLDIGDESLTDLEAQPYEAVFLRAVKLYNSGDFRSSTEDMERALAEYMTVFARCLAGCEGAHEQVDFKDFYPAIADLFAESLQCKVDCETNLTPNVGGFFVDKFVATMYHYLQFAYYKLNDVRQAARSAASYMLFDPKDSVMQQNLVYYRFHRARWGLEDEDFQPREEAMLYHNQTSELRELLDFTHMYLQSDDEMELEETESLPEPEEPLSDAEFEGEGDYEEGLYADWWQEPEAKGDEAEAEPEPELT
The experiment in a line: co-IP; 714 cells stably expressing SC65-Flag or empty vector (EV), where named transiently transfected with LH1-HA or CYPB-HA (48 h); for LH1-HA with P3H3: 714-pLen-EV cells transfected with LH1-HA in the presence of ascorbic acid; lysate with anti-DDDK, anti-HA or P3H3 antibody overnight at 4°C, A/G magnetic beads 4 h; elution at pH 2; Western blot. Background: A western blot detects proteins with antibodies after separation by electrophoresis.

The target in assay [2] is T2, HA-tagged lysyl-hydroxylase 1 (LH1-HA) (mouse) (UniProt Q9R0E2).
T2 sequence: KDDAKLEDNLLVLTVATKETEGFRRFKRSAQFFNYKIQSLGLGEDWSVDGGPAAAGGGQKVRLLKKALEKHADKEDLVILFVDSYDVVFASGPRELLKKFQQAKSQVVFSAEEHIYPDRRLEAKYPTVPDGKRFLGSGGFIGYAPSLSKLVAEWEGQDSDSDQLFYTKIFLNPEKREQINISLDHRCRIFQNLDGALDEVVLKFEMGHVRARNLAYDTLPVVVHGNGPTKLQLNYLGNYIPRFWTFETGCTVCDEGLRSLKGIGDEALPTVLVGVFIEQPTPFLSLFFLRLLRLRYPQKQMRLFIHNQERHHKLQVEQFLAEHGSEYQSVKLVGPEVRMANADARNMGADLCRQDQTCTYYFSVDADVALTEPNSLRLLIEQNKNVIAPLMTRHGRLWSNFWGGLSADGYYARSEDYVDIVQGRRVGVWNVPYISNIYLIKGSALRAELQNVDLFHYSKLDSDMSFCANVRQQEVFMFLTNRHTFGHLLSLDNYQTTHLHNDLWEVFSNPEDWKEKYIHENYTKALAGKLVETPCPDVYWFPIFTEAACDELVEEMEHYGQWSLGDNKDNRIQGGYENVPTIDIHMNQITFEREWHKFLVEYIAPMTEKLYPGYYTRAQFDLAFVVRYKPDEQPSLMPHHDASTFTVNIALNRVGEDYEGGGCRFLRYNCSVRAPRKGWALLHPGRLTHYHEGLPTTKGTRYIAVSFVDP
The assay is described as above.

Assay [3] concerns the target T1, SC65-Flag (Synaptonemal Complex 65, P3H4) (mouse). As to the kind of experiment: co-IP + SEC; Large-scale anti-Flag IP from 714 cells stably expressing SC65-Flag (72 h ascorbic acid 100 μg/ml), eluted with excess Flag peptide (500 ug/ml), run on Superdex 200 Increase 10/300 GL in 50mM phosphate, 0.15M NaCl pH7.4 at room temperature; 500 ul fractions TCA-concentrated and blotted.

Assay [4] has as its target T3, prolyl 3-hydroxylase 3 (P3H3), endogenous (mouse (endogenous in 714 cells)) (UniProt Q8CG70).
T3 sequence: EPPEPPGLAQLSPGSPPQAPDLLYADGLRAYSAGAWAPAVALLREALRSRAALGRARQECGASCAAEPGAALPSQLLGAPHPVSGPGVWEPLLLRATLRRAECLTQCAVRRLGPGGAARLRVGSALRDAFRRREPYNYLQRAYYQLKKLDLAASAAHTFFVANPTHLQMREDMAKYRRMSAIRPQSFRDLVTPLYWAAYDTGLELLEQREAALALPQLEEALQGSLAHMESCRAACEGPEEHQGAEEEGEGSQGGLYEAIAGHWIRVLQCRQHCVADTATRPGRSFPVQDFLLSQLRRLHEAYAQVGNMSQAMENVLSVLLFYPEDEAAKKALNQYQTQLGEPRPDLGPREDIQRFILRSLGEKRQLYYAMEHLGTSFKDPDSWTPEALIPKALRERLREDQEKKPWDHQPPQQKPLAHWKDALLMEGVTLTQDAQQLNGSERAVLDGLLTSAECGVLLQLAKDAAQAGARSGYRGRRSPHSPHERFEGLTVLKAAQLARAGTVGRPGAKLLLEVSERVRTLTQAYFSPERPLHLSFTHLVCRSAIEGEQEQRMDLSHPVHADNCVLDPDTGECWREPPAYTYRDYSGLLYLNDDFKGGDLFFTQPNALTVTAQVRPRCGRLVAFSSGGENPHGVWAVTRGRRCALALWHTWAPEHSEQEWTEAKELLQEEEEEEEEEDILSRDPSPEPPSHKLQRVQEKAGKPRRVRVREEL
The experiment in a line: co-IP; 714 cells stably expressing SC65-Flag or empty vector (EV), where named transiently transfected with LH1-HA or CYPB-HA (48 h); for LH1-HA with P3H3: 714-pLen-EV cells transfected with LH1-HA in the presence of ascorbic acid; lysate with anti-DDDK, anti-HA or P3H3 antibody overnight at 4°C, A/G magnetic beads 4 h; elution at pH 2; Western blot.

B1: prolyl 3-hydroxylase 3 (P3H3), endogenous (enzyme, UniProt Q8CG70 20-732)
chain: EPPEPPGLAQLSPGSPPQAPDLLYADGLRAYSAGAWAPAVALLREALRSRAALGRARQECGASCAAEPGAALPSQLLGAPHPVSGPGVWEPLLLRATLRRAECLTQCAVRRLGPGGAARLRVGSALRDAFRRREPYNYLQRAYYQLKKLDLAASAAHTFFVANPTHLQMREDMAKYRRMSAIRPQSFRDLVTPLYWAAYDTGLELLEQREAALALPQLEEALQGSLAHMESCRAACEGPEEHQGAEEEGEGSQGGLYEAIAGHWIRVLQCRQHCVADTATRPGRSFPVQDFLLSQLRRLHEAYAQVGNMSQAMENVLSVLLFYPEDEAAKKALNQYQTQLGEPRPDLGPREDIQRFILRSLGEKRQLYYAMEHLGTSFKDPDSWTPEALIPKALRERLREDQEKKPWDHQPPQQKPLAHWKDALLMEGVTLTQDAQQLNGSERAVLDGLLTSAECGVLLQLAKDAAQAGARSGYRGRRSPHSPHERFEGLTVLKAAQLARAGTVGRPGAKLLLEVSERVRTLTQAYFSPERPLHLSFTHLVCRSAIEGEQEQRMDLSHPVHADNCVLDPDTGECWREPPAYTYRDYSGLLYLNDDFKGGDLFFTQPNALTVTAQVRPRCGRLVAFSSGGENPHGVWAVTRGRRCALALWHTWAPEHSEQEWTEAKELLQEEEEEEEEEDILSRDPSPEPPSHKLQRVQEKAGKPRRVRVREEL
Regarding B1, the binding result in assay [1], in assay [2] and in assay [3] was “binds” each time.

B2: SC65-Flag (Synaptonemal Complex 65, P3H4) (protein, UniProt Q8K2B0 19-443)
chain: QYEKYSFRGFPPEDLMPLATAYGHALEQYEGESWRESARYLEAALRLHRLLRDSEAFCHANCSGPATSQPRPASGPDGDHDGDGEDWARELRLFGHVLERAACLRRCKKTLPAFQVPYPPRQLLRDFQSRLPYQYLHYAHFKANRLEKAVAAAYTFLQRNPKHELTAKYLNYYRGMLDIGDESLTDLEAQPYEAVFLRAVKLYNSGDFRSSTEDMERALAEYMTVFARCLAGCEGAHEQVDFKDFYPAIADLFAESLQCKVDCETNLTPNVGGFFVDKFVATMYHYLQFAYYKLNDVRQAARSAASYMLFDPKDSVMQQNLVYYRFHRARWGLEDEDFQPREEAMLYHNQTSELRELLDFTHMYLQSDDEMELEETESLPEPEEPLSDAEFEGEGDYEEGLYADWWQEPEAKGDEAEAEPEPELT
In the case of B2, the binding entry in assay [4] and in assay [2] was “binds” throughout.

B3: HA-tagged lysyl-hydroxylase 1 (LH1-HA) (enzyme, UniProt Q9R0E2 19-728)
chain: KDDAKLEDNLLVLTVATKETEGFRRFKRSAQFFNYKIQSLGLGEDWSVDGGPAAAGGGQKVRLLKKALEKHADKEDLVILFVDSYDVVFASGPRELLKKFQQAKSQVVFSAEEHIYPDRRLEAKYPTVPDGKRFLGSGGFIGYAPSLSKLVAEWEGQDSDSDQLFYTKIFLNPEKREQINISLDHRCRIFQNLDGALDEVVLKFEMGHVRARNLAYDTLPVVVHGNGPTKLQLNYLGNYIPRFWTFETGCTVCDEGLRSLKGIGDEALPTVLVGVFIEQPTPFLSLFFLRLLRLRYPQKQMRLFIHNQERHHKLQVEQFLAEHGSEYQSVKLVGPEVRMANADARNMGADLCRQDQTCTYYFSVDADVALTEPNSLRLLIEQNKNVIAPLMTRHGRLWSNFWGGLSADGYYARSEDYVDIVQGRRVGVWNVPYISNIYLIKGSALRAELQNVDLFHYSKLDSDMSFCANVRQQEVFMFLTNRHTFGHLLSLDNYQTTHLHNDLWEVFSNPEDWKEKYIHENYTKALAGKLVETPCPDVYWFPIFTEAACDELVEEMEHYGQWSLGDNKDNRIQGGYENVPTIDIHMNQITFEREWHKFLVEYIAPMTEKLYPGYYTRAQFDLAFVVRYKPDEQPSLMPHHDASTFTVNIALNRVGEDYEGGGCRFLRYNCSVRAPRKGWALLHPGRLTHYHEGLPTTKGTRYIAVSFVDP
On to B3, for which the binding result in assay [4] and in assay [1] was “binds” throughout.

B4: lysyl-hydroxylase 1 (LH1), endogenous (enzyme, UniProt Q9R0E2 19-728)
chain: KDDAKLEDNLLVLTVATKETEGFRRFKRSAQFFNYKIQSLGLGEDWSVDGGPAAAGGGQKVRLLKKALEKHADKEDLVILFVDSYDVVFASGPRELLKKFQQAKSQVVFSAEEHIYPDRRLEAKYPTVPDGKRFLGSGGFIGYAPSLSKLVAEWEGQDSDSDQLFYTKIFLNPEKREQINISLDHRCRIFQNLDGALDEVVLKFEMGHVRARNLAYDTLPVVVHGNGPTKLQLNYLGNYIPRFWTFETGCTVCDEGLRSLKGIGDEALPTVLVGVFIEQPTPFLSLFFLRLLRLRYPQKQMRLFIHNQERHHKLQVEQFLAEHGSEYQSVKLVGPEVRMANADARNMGADLCRQDQTCTYYFSVDADVALTEPNSLRLLIEQNKNVIAPLMTRHGRLWSNFWGGLSADGYYARSEDYVDIVQGRRVGVWNVPYISNIYLIKGSALRAELQNVDLFHYSKLDSDMSFCANVRQQEVFMFLTNRHTFGHLLSLDNYQTTHLHNDLWEVFSNPEDWKEKYIHENYTKALAGKLVETPCPDVYWFPIFTEAACDELVEEMEHYGQWSLGDNKDNRIQGGYENVPTIDIHMNQITFEREWHKFLVEYIAPMTEKLYPGYYTRAQFDLAFVVRYKPDEQPSLMPHHDASTFTVNIALNRVGEDYEGGGCRFLRYNCSVRAPRKGWALLHPGRLTHYHEGLPTTKGTRYIAVSFVDP
Turning to B4, the binding result in assay [3] is “binds”.
